In patent US20110065633A1 (INDIANA UNIVERSITY RESEARCH AND TECHNOLOGY CORPORATION, priority 2008, published 2011):

Test: solid-phase peptide synthesis
[1] = whole synthesis, analytical HPLC, C18 Vydac, UV 214 nm, scale of the general procedure 0.2 mmol (Boc/PAM), 0.1 mmole (Fmoc)
[2] = whole synthesis, scale 0.1 mmole

| Substance | isolated mass (whole synthesis) | final HPLC purity [1] [%] | isolated yield (whole synthesis, overall, scale of the general procedure 0.2 mmol (Boc/PAM), 0.1 mmole (Fmoc)) | crude mass (whole synthesis, scale 0.05 mmole) | final HPLC purity (conjugation step, 214 nm) [% HPLC purity] | crude mass [2] | isolated mass [2] |
| --- | --- | --- | --- | --- | --- | --- | --- |
| H2N-Phe-Thr-Ser-homoCys(SO3H)-Tyr-Ser-Lys-Tyr-Leu-Asp-Ser-Arg-Arg-Ala-Gln-Asp-Phe-Val-Gln-Trp-Leu-Met-Asn-Thr-NH2 | 15˜20 mg | 95 | 10˜15% yield totally | 100˜130 mg | – | – | – |
| [PLA6, E9, C24(40K)]glucagon (6-29) amide | – | – | – | – | 90 | – | – |
| [PLA6, E9]glucagon(6-29) amide | – | 95 | – | – | – | 200˜250 mg | 25˜40 mg |
